# Assay results reported in the supplement of paper PMC12542422.
# Structures can show the parent of a compound that is named as a salt. ± gives the standard deviation of the averaged measurements. The list shows a part of the results. Values are raw readings; no control value is given beside them.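 Across three biological replicates, HeLa cells were imaged for ribosome assembly using ENP1 staining (export block present or absent) or inducible tagged ribosomal protein reporters. Machine learning classified each cell's signal localization relative to DMSO controls. Hits exceeded the DMSO false-positive mean by five standard deviations and were then visually confirmed.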
# System: HeLa RPS2-YFP reporter
# Assay: fraction of reporter-positive cells with nuclear (nucleolar or nucleolar/nucleoplasmic) RPS2-YFP (MainHitrate); higher = more cells with nucleolar/nuclear readout signal (for ENP1 -LMB: less RNAPI inhibition; for +LMB ENP1 and RP reporters: stronger nuclear/nucleolar retention, i.e. ribosome biogenesis defect)
# Conditions: concentration: 1 µM; treatment time: 6 h
row,SMILES,fraction of reporter-positive cells with nuclear
1,NS(=O)(=O)c1cc2c(cc1C(F)(F)F)NC(Cc1ccccc1)NS2(=O)=O (configuration not stated) [Bendroflumethiazide],0.18 ± 0.17
2,CS(=O)(=O)CCNCc1ccc(-c2ccc3ncnc(Nc4ccc(OCc5cccc(F)c5)c(Cl)c4)c3c2)o1 [Lapatinib Ditosylate (Tykerb)],0.126 ± 0.1
3,Nc1ccn([C@@H]2O[C@H](CO)[C@@H](O)[C@@H]2O)c(=O)n1 [Cytarabine],0.0711 ± 0.028
4,CC(C)(S)[C@@H](N)C(=O)O [Penicillamine (Cuprimine)],0.134 ± 0.09
5,O=c1cc[nH]c(=O)[nH]1 [Uracil],0.111 ± 0.078
6,C[C@@]12C[C@@]3(O)O[C@@H](O1)[C@]1(COC(=O)c4ccccc4)[C@H]3C[C@@]12O[C@@H]1O[C@H](CO)[C@@H](O)[C@H](O)[C@H]1O [Paeoniflorin],0.116 ± 0.078
7,c1ccc(C2CN3CCSC3=N2)cc1 (configuration not stated) [Tetramisole HCl],0.122 ± 0.097
8,NC(=O)N/N=C/c1ccc([N+](=O)[O-])o1 [Nitrofurazone (Nitrofural)],0.117 ± 0.077
9,O=C(O)Cc1ccccc1Nc1c(Cl)cccc1Cl [Diclofenac],0.0628 ± 0.042
10,CC(C(=O)O)c1ccc2c(c1)[nH]c1ccc(Cl)cc12 (configuration not stated) [Carprofen],0.125 ± 0.12
11,CC(=O)Nc1ccccc1 [Acetanilide (Antifebrin)],0.118 ± 0.068
12,CCN(CC)CCOc1ccc(C(=C(Cl)c2ccccc2)c2ccccc2)cc1 [Clomifene citrate (Serophene)],0.12 ± 0.096
13,CCS(=O)(=O)CCn1c([N+](=O)[O-])cnc1C [tinidazole],0.119 ± 0.097
14,Cc1ccc(-c2cc(C(F)(F)F)nn2-c2ccc(S(N)(=O)=O)cc2)cc1 [Celecoxib],0.101 ± 0.074
15,CC(C)(Sc1cc(C(C)(C)C)c(O)c(C(C)(C)C)c1)Sc1cc(C(C)(C)C)c(O)c(C(C)(C)C)c1 [Probucol],0.113 ± 0.088
16,CN1CCC(OC(c2ccccc2)c2ccccc2)CC1 [Diphenylpyraline HCl],0.155 ± 0.15

row,SMILES,fraction of reporter-positive cells with nuclear
1,C[C@]12CCC(=O)C=C1CC[C@@H]1[C@@H]2[C@@H](O)C[C@@]2(C)[C@H]1CC[C@]2(O)C(=O)CO [Hydrocortisone (Cortisol)],0.0944 ± 0.069
2,CNC[C@@H](O)c1ccc(O)c(O)c1 [L-Adrenaline (Epinephrine)],0.11 ± 0.072
3,CC(C)Cn1cnc2c(N)nc3ccccc3c21 [Imiquimod],0.103 ± 0.071
4,C=C(NC(=O)C(=C)NC(=O)c1csc(C2=N[C@@H]3c4csc(n4)[C@H]4NC(=O)c5csc(n5)[C@H]([C@](C)(O)[C@@H](C)O)NC(=O)[C@H]5CSC(=N5)/C(=C/C)NC(=O)[C@H]([C@@H](C)O)NC(=O)c5csc(n5)[C@]3(CC2)NC(=O)[C@H](C)NC(=O)C(=C)NC(=O)[C@H](C)NC(=O)[C@H]([C@@H](C)CC)N[C@@H]2C=Cc3c([C@H](C)O)cc(nc3[C@H]2O)C(=O)O[C@@H]4C)n1)C(N)=O [Thiostrepton],0.215 ± 0.21
5,CC(O)(P(=O)(O)O)P(=O)(O)O [Etidronate (Didronel)],0.0908 ± 0.048
6,C[C@@H]1C[C@H]2[C@@H]3CCC4=CC(=O)C=C[C@]4(C)[C@@]3(F)[C@@H](O)C[C@]2(C)[C@@]1(O)C(=O)CO [Dexamethasone],0.126 ± 0.098
7,O=C(O)c1cc(=O)c2ccccc2o1 [Chromocarb],0.115 ± 0.11
8,COc1ccc([C@@H]2Sc3ccccc3N(CCN(C)C)C(=O)[C@@H]2OC(C)=O)cc1 [Diltiazem HCl (Tiazac)],0.116 ± 0.055
9,CN1CCC(=C2c3ccccc3CC(=O)c3sccc32)CC1 [Ketotifen fumarate (Zaditor)],0.118 ± 0.081
10,Cc1ncc([N+](=O)[O-])n1CC(O)CCl (configuration not stated) [Ornidazole],0.104 ± 0.083
11,COc1cc2nc(N3CCN(C(=O)C4CCCO4)CC3)nc(N)c2cc1OC (configuration not stated) [Terazosin HCl (Hytrin)],0.141 ± 0.078
12,COc1ccccc1OCC(O)CO (configuration not stated) [Guaifenesin (Guaiphenesin)],0.114 ± 0.076
13,CC(C)c1nc(CN(C)C(=O)N[C@H](C(=O)N[C@@H](Cc2ccccc2)C[C@H](O)[C@H](Cc2ccccc2)NC(=O)OCc2cncs2)C(C)C)cs1 [Ritonavir],0.105 ± 0.067
14,CCC1(c2ccccc2)C(=O)NCNC1=O [Primidone (Mysoline)],0.0575 ± 0.013
15,CS(=O)(=O)c1ccc(C(=O)Nc2ccc(Cl)c(-c3ccccn3)c2)c(Cl)c1 [Vismodegib (GDC-0449)],0.109 ± 0.07
16,NC(=O)c1ncn([C@@H]2O[C@H](CO)[C@@H](O)[C@H]2O)c1N [Acadesine],0.094 ± 0.08

# Two records picked at random from those above:
row,SMILES,fraction of reporter-positive cells with nuclear
10,Cc1ncc([N+](=O)[O-])n1CC(O)CCl (configuration not stated) [Ornidazole],0.104 ± 0.083
8,COc1ccc([C@@H]2Sc3ccccc3N(CCN(C)C)C(=O)[C@@H]2OC(C)=O)cc1 [Diltiazem HCl (Tiazac)],0.116 ± 0.055
